Results are given in words; binding and its absence hold for the method and conditions named.
What was measured:
[1] = biological target: recombinant Fel d 4 produced in E. coli (E_rFel d 4) (cat (Felis domesticus)) (UniProt Q5VFH6); assay: SEC; analytical size-exclusion chromatography recorded at 280 nm, superimposed to a gel filtration standard; both purified
[2] = biological target: recombinant Fel d 4 produced in Expi293F mammalian cells (M_rFel d 4) (cat (Felis domesticus)) (UniProt Q5VFH6); assay: as above

B1: recombinant Fel d 4 produced in E. coli (E_rFel d 4) (protein, UniProt Q5VFH6 16-186)
chain: HEEENVVRSNIDISKISGEWYSILLASDVKEKIEENGSMRVFVEHIKALDNSSLSFVFHTKENGKCTEIFLVADKTKDGVYTVVYDGYNVFSIVETVYDEYILLHLLNFDKTRPFQLVEFYAREPDVSQKLKEKFVKYCQEHGIVNILDLTEVDRCLQARGSEVAQDSSVE
modifications: N-formylmethionine (from the intact mass of the hexa-histidine tagged protein)
binding [1]: no binding

B2: recombinant Fel d 4 produced in Expi293F mammalian cells (M_rFel d 4) (protein, UniProt Q5VFH6 16-186)
chain: HEEENVVRSNIDISKISGEWYSILLASDVKEKIEENGSMRVFVEHIKALDNSSLSFVFHTKENGKCTEIFLVADKTKDGVYTVVYDGYNVFSIVETVYDEYILLHLLNFDKTRPFQLVEFYAREPDVSQKLKEKFVKYCQEHGIVNILDLTEVDRCLQARGSEVAQDSSVE
modifications: N-glycan at N51 (at least 7 glycoforms)
binding [2]: no binding
